For part of these data: At least one result comes from cells or an extract, where the contact may be indirect. For part of these data: For at least one entry, the source does not settle the construct or the ends of the probe.

The chains behind the UniProt entries cited, without tags or fusion partners. Where a name states a change or a piece, a line headed by the entry shows the natural chain unless it says otherwise.
UniProt Q04609: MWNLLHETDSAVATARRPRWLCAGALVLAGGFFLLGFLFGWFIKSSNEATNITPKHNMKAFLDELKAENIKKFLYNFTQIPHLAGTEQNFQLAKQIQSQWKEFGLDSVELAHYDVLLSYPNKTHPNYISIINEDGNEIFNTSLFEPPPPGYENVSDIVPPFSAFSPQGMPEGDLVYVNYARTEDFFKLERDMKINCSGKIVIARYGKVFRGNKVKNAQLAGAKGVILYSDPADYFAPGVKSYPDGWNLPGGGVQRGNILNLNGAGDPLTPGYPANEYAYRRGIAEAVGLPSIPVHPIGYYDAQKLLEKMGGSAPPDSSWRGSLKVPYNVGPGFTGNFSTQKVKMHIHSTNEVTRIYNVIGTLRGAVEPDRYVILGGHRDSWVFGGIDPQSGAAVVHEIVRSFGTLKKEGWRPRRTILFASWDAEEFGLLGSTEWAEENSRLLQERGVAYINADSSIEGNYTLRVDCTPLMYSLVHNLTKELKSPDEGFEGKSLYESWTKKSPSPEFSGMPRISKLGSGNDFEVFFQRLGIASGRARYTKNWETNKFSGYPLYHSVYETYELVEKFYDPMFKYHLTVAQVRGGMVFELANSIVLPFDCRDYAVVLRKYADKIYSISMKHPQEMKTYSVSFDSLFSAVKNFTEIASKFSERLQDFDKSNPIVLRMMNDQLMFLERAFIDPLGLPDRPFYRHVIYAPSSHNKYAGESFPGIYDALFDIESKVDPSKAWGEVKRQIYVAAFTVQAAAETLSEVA

The record followed here is patent publication US20150094359.

The target of series [1] is PSMA (prostate specific membrane antigen) extracellular domain (Homo sapiens) (UniProt Q04609). Description: SELEX. The following applies: selected after 10 forward and 2 counter rounds; 100 mM NaCl, 20 mM Tris, 2 mM MgCl2, 5 mM KCl, 1 mM CaCl2, 0.2% Tween-20, pH 8, 37 C; purified recombinant protein; single-stranded DNA.
The target in series [2] is PSMA (prostate specific membrane antigen) (UniProt Q04609). Description: flow cytometry. The following applies: 1 uM DAC, 2 h, 37 C; uptake in PSMA+ C4-2 cells, minimal in PSMA-null PC3 cells (confocal); protein on the cell surface; protein details: endogenous on C4-2 cells; folded or branched DNA. A general note: A flow cytometer gives signals particle by particle.
Series [3] has the same target. Description: competition with a labelled probe. The following applies: pre-incubation with anti-PSMA antibody J591 attenuated DAC uptake in C4-2 cells; protein on the cell surface; protein details: endogenous on C4-2 cells; folded or branched DNA.

“GCGTTTTCGCTTTTGCGTTTTGGGTCATCTGCTTACGATAGCAATGCT [SZTI01]”: the selection result in series [1] is reported as “selected”.

Take “GCGTTTTCGCTTTTGCGTTTTGGGTCATCTGCTTACGATAGCAATGCTCGGCAAAAAAAAAAAAAAAAGCCG / GCGTTTTCGCTTTTGCGTTTTGGGTCATCTGCTTACGATAGCAATGCTCGGCTTTTTTTTTTTTTTTTGCCG”: the binding result in series [2] and in series [3] was “binds” each time.
